Measured values taken from article doi:10.1101/2021.05.11.443658 (bioRxiv, 2021).
These are yes or no findings as the source states them, for the method shown. For some assays here: In cells and extracts the contact can be indirect. Some results given as binding are weak or reduced against the parent protein; the word gives no strength. Sequences can lack the tags named with a protein.

Amino acid sequences for entries named in this document (tags omitted).
UniProt Q10PZ9: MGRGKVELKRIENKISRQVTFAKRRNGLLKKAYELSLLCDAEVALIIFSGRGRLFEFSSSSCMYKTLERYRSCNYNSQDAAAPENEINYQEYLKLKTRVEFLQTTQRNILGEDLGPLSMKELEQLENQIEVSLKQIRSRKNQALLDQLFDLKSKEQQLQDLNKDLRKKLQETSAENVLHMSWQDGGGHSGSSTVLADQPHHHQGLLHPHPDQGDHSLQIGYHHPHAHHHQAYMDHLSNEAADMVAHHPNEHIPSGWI

T1: OsbZIP47ΔC fused to the Gal4 DNA-binding domain (yeast two-hybrid bait) (rice (Oryza sativa)) (UniProt Q5Z6N9)
T1 sequence: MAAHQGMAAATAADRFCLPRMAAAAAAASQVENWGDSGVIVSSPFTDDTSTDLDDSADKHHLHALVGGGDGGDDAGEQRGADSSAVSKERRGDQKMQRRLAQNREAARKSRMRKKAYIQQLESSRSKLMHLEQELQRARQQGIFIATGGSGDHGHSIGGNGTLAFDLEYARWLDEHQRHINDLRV

B1: RFL fused to the GAL4 activation domain (yeast two-hybrid prey) (protein, UniProt Q0JAI1 1-389)
chain: MDPNDAFSAAHPFRWDLGPPAPAPVPPPPPPPPPPPPANVPRELEELVAGYGVRMSTVARISELGFTASTLLAMTERELDDMMAALAGLFRWDLLLGERFGLRAALRAERGRLMSLGGRHHGHQSGSTVDGASQEVLSDEHDMAGSGGMGDDDNGRRMVTGKKQAKKGSAARKGKKARRKKVDDLRLDMQEDEMDCCDEDGGGGSESTESSAGGGGGERQREHPFVVTEPGEVARAKKNGLDYLFHLYEQCRLFLLQVQSMAKLHGHKSPTKVTNQVFRYAKKVGASYINKPKMRHYVHCYALHCLDEEASDALRRAYKARGENVGAWRQACYAPLVDISARHGFDIDAVFAAHPRLAIWYVPTRLRQLCHQARSSHAAAAAALPPPLF
B2: OSH1 fused to the GAL4 activation domain (yeast two-hybrid prey) (protein, UniProt P46609 1-361)
chain: MEEISHHFGVVGASGVHGGHQHQHHHHPWGSSLSAIVAPPPPPQLQQQQTQAGGMAHTPLTLNTAAAAVGNPVLQLANGSLLDACGKAKEASASASYAADVEAIKAKIISHPHYSSLLAAYLDCQKVGAPPEVAARLTAVAQDLELRQRTALGVLGAATEPELDQFMEAYHEMLVKYREELTRPLQEAMEFLRRVETQLNTLSISGRSLRNILSSGSSEEDQEGSGGETELPEIDAHGVDQELKHHLLKKYSGYLSSLKQELSKKKKKGKLPKDARQQLLNWWELHYKWPYPSESQKVALAESTGLDLKQINNWFINQRKRHWKPSDEMQFVMMDGYHPTNAAAFYMDGHFINDGGLYRLG
B3: RFL nYFP fusion protein (BiFC) (protein, UniProt Q0JAI1 1-389)
chain: MDPNDAFSAAHPFRWDLGPPAPAPVPPPPPPPPPPPPANVPRELEELVAGYGVRMSTVARISELGFTASTLLAMTERELDDMMAALAGLFRWDLLLGERFGLRAALRAERGRLMSLGGRHHGHQSGSTVDGASQEVLSDEHDMAGSGGMGDDDNGRRMVTGKKQAKKGSAARKGKKARRKKVDDLRLDMQEDEMDCCDEDGGGGSESTESSAGGGGGERQREHPFVVTEPGEVARAKKNGLDYLFHLYEQCRLFLLQVQSMAKLHGHKSPTKVTNQVFRYAKKVGASYINKPKMRHYVHCYALHCLDEEASDALRRAYKARGENVGAWRQACYAPLVDISARHGFDIDAVFAAHPRLAIWYVPTRLRQLCHQARSSHAAAAAALPPPLF

How the values were obtained:
[1] = target: OsbZIP47ΔC-cYFP fusion protein (BiFC) (rice (Oryza sativa)) (UniProt Q5Z6N9); assay: split reporter
[2] = target: T1, OsbZIP47ΔC fused to the Gal4 DNA-binding domain (yeast two-hybrid bait) (rice (Oryza sativa)); assay: two-hybrid

Row | Molecule | binding [1] | binding [2]
1 | OsMADS1 nYFP fusion protein (BiFC) (from UniProt Q10PZ9 1-257) | binds | 
2 | OSH1 nYFP fusion protein (BiFC) (from UniProt P46609 1-361) | binds | 
3 | B1 |  | binds
4 | B2 |  | binds
5 | B3 | binds | 
